# Measurements: PubChem BioAssay AID504327 (National Center for Advancing Translational Sciences (NCATS), 2011)
# Protein sequences, listed by entry. Tags and fused reporters are not part of them.
# UniProt Q92830, whole entry, looked up: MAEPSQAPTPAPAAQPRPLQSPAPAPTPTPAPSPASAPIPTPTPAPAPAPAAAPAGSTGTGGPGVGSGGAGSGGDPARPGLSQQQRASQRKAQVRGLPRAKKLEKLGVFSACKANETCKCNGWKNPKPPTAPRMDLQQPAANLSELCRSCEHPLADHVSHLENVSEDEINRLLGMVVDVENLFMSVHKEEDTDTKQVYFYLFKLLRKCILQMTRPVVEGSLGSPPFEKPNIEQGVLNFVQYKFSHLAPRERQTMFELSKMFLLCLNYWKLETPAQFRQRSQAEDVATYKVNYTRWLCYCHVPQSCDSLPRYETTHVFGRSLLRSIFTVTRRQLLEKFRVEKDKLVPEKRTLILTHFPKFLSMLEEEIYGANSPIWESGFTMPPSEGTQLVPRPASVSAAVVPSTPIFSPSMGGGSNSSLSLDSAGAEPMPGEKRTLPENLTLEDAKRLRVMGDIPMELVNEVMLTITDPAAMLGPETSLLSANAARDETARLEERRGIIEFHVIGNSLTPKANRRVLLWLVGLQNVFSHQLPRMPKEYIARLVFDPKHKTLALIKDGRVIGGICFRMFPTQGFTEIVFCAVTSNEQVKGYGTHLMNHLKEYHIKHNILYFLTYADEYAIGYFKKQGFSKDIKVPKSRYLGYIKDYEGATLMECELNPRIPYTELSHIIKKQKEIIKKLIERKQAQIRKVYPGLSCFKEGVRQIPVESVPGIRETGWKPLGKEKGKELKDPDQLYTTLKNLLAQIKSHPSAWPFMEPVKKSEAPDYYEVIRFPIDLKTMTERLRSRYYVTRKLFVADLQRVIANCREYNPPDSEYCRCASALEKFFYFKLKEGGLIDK
# Screen size: about 390,000 compounds; about 820 (0.21%) were called active. Inconclusive means that the source gave no clear call. Such entries were picked first, then a sample of the others. Calls come from the whole dose curve; as a rule, active = well fitted inhibition curve with a large enough effect; inconclusive = small, poorly fitted or top-dose-only effect, or another doubt; inactive = no such curve, though single readings can be large or run the other way. A potency beside an inconclusive call is a rough fit, not a confirmed value.
# Molecular target: Histone acetyltransferase KAT2A (Homo sapiens) (UniProt Q92830)
# Experiment: qHTS Assay for Inhibitors of GCN5L2
# Details: GCN5L2 HAT assay, ThioGlo1 CoA-SH fluorescence; activity change, negative = inhibition: at 58.9 µM (top of the series) unless noted
# Outline: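 qHTS, 1536-well. 20nM enzyme, pH 7.5 HEPES/EDTA/Tween-20 buffer; 15 min compound preinc., RT. Start: 75uM H3(1-25), 70uM AcCoA, 50uM ThioGlo1. Read Ex340/Em540 at t=0 (autofluorescence flag) and t=20 min.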
# % is set by controls: 0 for no effect and ±100 for the full control effect; potency is the fitted concentration of half-maximal effect.
SMILES,Potency,"activity change, negative = inhibition"
O=C(CN1C(=O)C2C3CCC(C3)C2C1=O)NCc1ccco1 (centres undefined),"inconclusive: 7.08 µM [inhibitor, full curve, poor fit]",–
O=C(NN1C(=O)CSC1=S)C(=O)NN1C(=O)CSC1=S,inactive,–
Cc1ccc(S(=O)(=O)N2[C@@H](c3cccc(Cl)c3)C(C(=O)O)=CC[C@H]2c2ccc(Cl)c(Cl)c2)cc1,"inconclusive: 35.5 µM [inhibitor, single point]",–
CCNc1cc2n(c(=O)n1)CCc1cc(OC)c(OC)cc1-2,inactive,–
C=CCOc1c2ccc(C(=O)NCc3ccccc3OC)cc2nn1C,"inconclusive: 3.16 µM [inhibitor, full curve, poor fit]",–
CN(C)C=Nc1ccc2nn(-c3ccccc3)nc2c1,"inconclusive: 35.5 µM [inhibitor, single point]",–
COc1ccc(S(=O)(=O)CC(=O)c2cc3cccc(C)c3oc2=O)cc1,inactive,–
O=C(CSc1nc(=O)n2cc(Cl)ccc2n1)NCCc1ccccc1,"inconclusive: 10 µM [inhibitor, partial curve]",–
O=C(CSC1=Nc2ccccc2C2=NC(Cc3c[nH]c4ccccc34)C(=O)N12)NC1CCCCC1 (centres undefined),–,inconclusive: -46.1% [inhibitor]
COc1ccc(OC)c(S(=O)(=O)N2CCC(C(=O)NCC3CCCO3)CC2)c1 (centres undefined),"inconclusive: 0.501 µM [inhibitor, single point]",–
CCOC(=O)C1=C(C)c2ccccc2N(C(=O)OC)C1(C)C(=O)OCC (centres undefined),"inconclusive: 56.2 µM [inhibitor, single point]",–
N#Cc1c(Nc2ccccc2Cl)s[nH]c1=O,"inconclusive: 31.6 µM [inhibitor, partial curve]",–
O=C(Nc1ccc2c(c1)OCCO2)c1cc(-c2ccccc2)nc2ccccc12,inactive,–
CC(=O)Nc1ccc(OCCOc2ccc([N+](=O)[O-])cc2)cc1,"inconclusive: 17.8 µM [inhibitor, single point]",–
Cc1ncc(C[n+]2csc(CCO)c2C)c(N)n1,"inconclusive: 8.91 µM [inhibitor, single point]",–
Cc1cc2c(N)cccc2nn1,"inconclusive: 20 µM [inhibitor, single point]",–
COc1ccc(OC)c(NC(=O)c2cnn(-c3ccccc3)c2C)c1,"inconclusive: 39.8 µM [inhibitor, single point]",–
CC(C)(C)c1ccccc1OCCCCCn1ccnc1,inactive,–
C/C(CC(=O)Nc1cccc(Cl)c1Cl)=N\NC(=O)c1ccccc1Br,"inconclusive: 39.8 µM [inhibitor, single point]",–
COC(=O)c1ccc(CN2C(=O)c3ccccc3C2=O)cc1,inactive,–
COc1ccc(C2CC(c3cccs3)=NN2c2ccc(C=O)cc2)cc1 (centres undefined),"inconclusive: 22.4 µM [inhibitor, single point]",–
Cc1cc2nc(-c3ccc(SCC(=O)N4CCN(C(=O)c5ccco5)CC4)nc3)[nH]c2cc1C,"inconclusive: 20 µM [inhibitor, partial curve]",–
CCCCN(C)CCNC(=O)c1c2c(nc3ccccc13)C(=O)N(C1CCCCC1)C2,inactive,–

SMILES,Potency,"activity change, negative = inhibition"
Cc1ccc(-c2cc(C(=O)NCc3ccco3)c3ccccc3n2)o1,"inconclusive: 31.6 µM [inhibitor, partial curve]",–
COc1ccccc1NC(=O)c1c(NCc2ccc(OC)c(OC)c2OC)sc2c1CCC2,inactive,–
COc1ccc(NC2=NCC(=O)N2c2ccccc2F)cc1,"inconclusive: 25.1 µM [inhibitor, single point]",–
CC(=O)c1ccc(S(=O)(=O)NCCC(=O)OCC(=O)NCCc2ccccc2)cc1,"inconclusive: 0.708 µM [inhibitor, full curve, poor fit]",–
Cc1ccccc1CN1C(=O)c2ccccc2S(=O)c2ccc(C(=O)NC3CCC(C)CC3)cc21 (centres undefined),inactive,–
CCCCc1cc(=O)oc2c(CN(C)C)c(O)ccc12,"inconclusive: 20 µM [inhibitor, partial curve]",–
O=C(NCCc1c[nH]c2ccccc12)c1ccccc1O,inactive,–
O=C(c1cc(S(=O)(=O)N2CCOCC2)ccc1Cl)N1CCOCC1,"inconclusive: 5.01 µM [inhibitor, full curve, poor fit]",–
N#Cc1c(-c2ccco2)c2c([nH]c1=S)CCCC2,"inconclusive: 1.58 µM [inhibitor, full curve, poor fit]",–
CCC(=O)Nc1ccc(NCc2ccc(-c3ccccc3)cc2)cc1,inactive,–
COc1ccc(OC)c(NC(=O)C2=C(C)C(=O)OC23CCCCCC3)c1,inactive,–
O=[N+]([O-])c1nn(-c2ccccc2)n(O)c1=NCc1ccc2c(c1)OCO2,inactive,–
C1=C(c2ccc(-c3ccccc3)cc2)Nc2ncnn2C1c1ccco1 (centres undefined),"inconclusive: 39.8 µM [inhibitor, single point]",–
Cc1ccc(NC(=O)N2CCCC(c3ccccc3)C2)cc1 (centres undefined),"inconclusive: 2.82 µM [inhibitor, partial curve]",–
Cc1ccc(C)c(NC(=O)CC2NCCNC2=O)c1 (centres undefined),inactive,–
Cc1sc2c(c1C)c(=O)n(-c1ccccc1)c1nnc(C)n21,"inconclusive: 7.08 µM [inhibitor, single point]",–
CCOc1ccccc1CN1CCC(N2CCOCC2)CC1,"inconclusive: 39.8 µM [inhibitor, single point]",–
CCc1cccc(C)c1NS(=O)(=O)c1cc2[nH]c(=O)c(=O)[nH]c2cc1C,inactive,–
Cc1c2cnn(CC(=O)NCCN3CCOCC3)c(=O)c2c(C)n1Cc1ccc(F)cc1,"inconclusive: 0.562 µM [inhibitor, full curve, poor fit]",–
Cc1ccc(S(=O)(=O)c2ccc(Oc3cccc(C)c3)cc2)cc1,"inconclusive: 0.447 µM [inhibitor, partial curve, poor fit]",–
CCOc1cc(N2CCOCC2)c(OCC)cc1NC(=O)COc1ncnc2ccc(Br)cc12,"inconclusive: 35.5 µM [inhibitor, single point]",–
O=C(NC1=NCCS1)c1ccc(Cl)cc1,"inconclusive: 8.91 µM [inhibitor, single point]",–
CN(C)Cc1ccccc1-c1cncnc1NCc1cccnc1,"inconclusive: 28.2 µM [inhibitor, single point]",–

# Looked up by structure from the entries so far:
SMILES,Potency,"activity change, negative = inhibition"
CC(=O)Nc1ccc(OCCOc2ccc([N+](=O)[O-])cc2)cc1,"inconclusive: 17.8 µM [inhibitor, single point]",–
N#Cc1c(Nc2ccccc2Cl)s[nH]c1=O,"inconclusive: 31.6 µM [inhibitor, partial curve]",–

# An excerpt of these results, tab-delimited:
SMILES	Potency	activity change, negative = inhibition
Cc1cc2c(N)cccc2nn1	inconclusive: 20 µM [inhibitor, single point]	–
COc1ccc(OC)c(NC(=O)c2cnn(-c3ccccc3)c2C)c1	inconclusive: 39.8 µM [inhibitor, single point]	–
CC(C)(C)c1ccccc1OCCCCCn1ccnc1	inactive	–
C/C(CC(=O)Nc1cccc(Cl)c1Cl)=N\NC(=O)c1ccccc1Br	inconclusive: 39.8 µM [inhibitor, single point]	–

# Additional results:

SMILES,Potency,"activity change, negative = inhibition"
O=C(COc1ccccc1Cl)Nc1ccccc1C(=O)N1CCOCC1,"inconclusive: 1.26 µM [inhibitor, full curve, poor fit]",–
O=C(c1cc(COc2cccc(C(F)(F)F)c2)on1)N1CCC(Oc2cccnc2)CC1,"inconclusive: 0.316 µM [inhibitor, full curve]",–
CCCCc1ccc(/C=C2\C(=O)c3ccccc3C(O)=C2C(=O)OCC)cc1,"inconclusive: 20 µM [inhibitor, partial curve]",–
OCCN1CCN(CC/C=C2/c3ccccc3Sc3ccc(C(F)(F)F)cc32)CC1,"inconclusive: 0.708 µM [inhibitor, partial curve, poor fit]",–
CC(C)CCN1CCN(Cc2cnc(-c3ccccc3)s2)CC1CCO (centres undefined),"inconclusive: 35.5 µM [inhibitor, single point]",–
N=C1/C(=C\c2ccc(-c3cccc(Cl)c3)o2)C(=O)N=C2SC=C(c3ccccc3)N12,"inconclusive: 25.1 µM [inhibitor, partial curve]",–
Cc1ccc(C(=O)Nc2cccc(OCc3cc(=O)n4c5c(sc4n3)CCCC5)c2)cc1,inactive,–
Cc1cccc(S(=O)(=O)Nc2nc3ccccc3nc2OC(C)C)c1,"inconclusive: 0.794 µM [inhibitor, full curve, poor fit]",–
Cc1cc(-c2nnc(SCC(=O)c3ccc4c(c3)OCCO4)o2)no1,inactive,–
CSc1ncccc1C(=O)OCC(=O)c1ccc2c(c1)NC(=O)CO2,"inconclusive: 5.62 µM [inhibitor, full curve, poor fit]",–
COc1cc(C(F)(F)F)ccc1C(=O)NCCc1ccco1,"inconclusive: 0.891 µM [inhibitor, single point]",–
Fc1cc2[nH]c(=S)[nH]c2cc1Cl,"inconclusive: 39.8 µM [inhibitor, single point]",–
Cc1nc(-c2cccc(NC(=O)Nc3ccc([N+](=O)[O-])cc3)c2)no1,"inconclusive: 35.5 µM [inhibitor, single point]",–
CCCc1cc(=O)oc2c3c(ccc12)OCN(Cc1ccc(OC)cc1)C3,"inconclusive: 39.8 µM [inhibitor, single point]",–
COc1ccccc1CNC(=O)CSc1ccc(-c2cccs2)nn1,inactive,–
Cn1c(=O)c(=O)n(C)c2cc(S(=O)(=O)N3CCCC3C(=O)Nc3ccccc3F)ccc21 (centres undefined),"inconclusive: 0.708 µM [inhibitor, single point]",–
Cc1cn[nH]c1,"inconclusive: 39.8 µM [inhibitor, single point]",–
O=C(NCc1ccccc1C(F)(F)F)C1CC(c2cc(C(F)(F)F)cc(C(F)(F)F)c2)=NO1 (centres undefined),"inconclusive: 0.891 µM [inhibitor, full curve, poor fit]",–
CCN(CC)C(=O)CSc1nnc(CNc2ccc(F)cc2)o1,"inconclusive: 39.8 µM [inhibitor, partial curve]",–
Cc1cc(C)c2[nH]c(=O)c(C(c3nnnn3C(C)(C)C)N3CCN(C(=O)c4ccco4)CC3)cc2c1 (centres undefined),inactive,–
Cc1cc(C)n2cc(CSc3nc4cc(Cl)ccc4o3)nc2n1,inactive,–
Cc1ccc(NC(=S)NC2CC3CCCC(C2)N3Cc2cccs2)cc1 (centres undefined),"inconclusive: 20 µM [inhibitor, single point]",–
O=C(COC(=O)CC12CC3CC(CC(Br)(C3)C1)C2)NC(=O)NCc1ccco1,"inconclusive: 2.82 µM [inhibitor, full curve, poor fit]",–
